± gives the standard deviation of the averaged measurements. The list shows a part of the results. Values are raw readings; no control value is given beside them.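 In this assay, LPS from bacteria induces microglia-mediated neuronal death in a neuron–microglia–astrocyte co-culture, a model of inflammatory neurodegeneration. Compounds were compared against same-plate DMSO vehicle wells, with the SYK inhibitor BAY61-3606 as reference neuroprotective control.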
Legend:
Conditions in all cases: 1 µM, treatment time 3 days
[1] = system: rat primary cerebellar neuron-glia coculture; assay: microglia count (IB4+) per image field (cells per field); higher = more microglia
[2] = system: rat primary cerebellar neuron-glia coculture; assay: necrotic cell count (DRAQ7+) per image field (cells per field); higher = more necrosis
[3] = system: rat primary cerebellar neuron-glia coculture; assay: live neuron count (NeuO+) per image field (cells per field); higher = more surviving neurons
[4] = system: rat primary cerebellar neuron-glia coculture; assay: median microglial FormFactor (circularity) per image (dimensionless (0-1)); higher = rounder, more ameboid microglia

Row | SMILES | microglia count ([1]; LPS 0 ng/mL) | microglia count ([1]; LPS 100 ng/mL) | necrotic cell count ([2]; LPS 0 ng/mL) | necrotic cell count ([2]; LPS 100 ng/mL) | live neuron count ([3]; LPS 0 ng/mL) | live neuron count ([3]; LPS 100 ng/mL) | median microglial FormFactor ([4]; LPS 0 ng/mL) | median microglial FormFactor ([4]; LPS 100 ng/mL)
1 | Cn1c(CO)c(-c2ccccc2)c2cc([N+](=O)[O-])ccc21 | 169 ± 62 | 423 ± 57 | 83.3 ± 28 | 957 ± 340 | 2600 ± 490 | 427 ± 370 | 0.533 ± 0.079 | 0.659 ± 0.067
2 | Cc1nccn1CC1CCc2c(c3ccccc3n2C)C1=O (stereo not given) | 183 ± 70 | 455 ± 91 | 82.1 ± 38 | 900 ± 330 | 2670 ± 540 | 348 ± 360 | 0.542 ± 0.092 | 0.664 ± 0.072
3 | CCCCCCCC(=O)N[C@H](CN1CCCC1)[C@H](O)c1ccc2c(c1)OCCO2 | 227 ± 52 | 460 ± 130 | 56.8 ± 17 | 985 ± 330 | 2080 ± 510 | 230 ± 190 | 0.524 ± 0.084 | 0.638 ± 0.082
4 | CCCCOc1nc(N)c2c(n1)N(Cc1cccc(CN3CCCC3)c1)CC(=O)N2 | 901 ± 140 | 524 ± 230 | 107 ± 140 | 1110 ± 510 | 1880 ± 530 | 181 ± 300 | 0.371 ± 0.043 | 0.598 ± 0.088
5 | COc1ccc(C2CNC(=O)C2)cc1OC1CCCC1 (stereo not given) | 145 ± 37 | 300 ± 50 | 101 ± 48 | 1310 ± 310 | 2750 ± 580 | 153 ± 150 | 0.537 ± 0.1 | 0.806 ± 0.075
6 | NC1(Cc2ccc(Cl)cc2)CCN(c2ncnc3[nH]ccc23)CC1 | 153 ± 61 | 416 ± 80 | 87.1 ± 28 | 1030 ± 400 | 2660 ± 400 | 530 ± 600 | 0.621 ± 0.09 | 0.616 ± 0.1
7 | CCOP(=O)(OCC)C(=Cc1cc(C(C)(C)C)c(O)c(C(C)(C)C)c1)P(=O)(OCC)OCC | 260 ± 57 | 481 ± 120 | 47.1 ± 19 | 1010 ± 430 | 2500 ± 420 | 474 ± 750 | 0.506 ± 0.087 | 0.647 ± 0.098
8 | O=C1C2C=Nc3ccccc3C2=NN1c1ccc(Cl)cc1 (stereo not given) | 286 ± 370 | 474 ± 100 | 69 ± 30 | 766 ± 400 | 2470 ± 610 | 574 ± 590 | 0.554 ± 0.067 | 0.602 ± 0.092
9 | O=C(NCCCCCCNC(=O)ON=C1CCCCC1)ON=C1CCCCC1 | 170 ± 47 | 450 ± 81 | 80.2 ± 25 | 883 ± 300 | 2670 ± 530 | 591 ± 580 | 0.56 ± 0.091 | 0.635 ± 0.065
10 | CN(C)c1ccc(/C=C2\C(=O)Nc3ccccc32)cc1 | 167 ± 49 | 417 ± 76 | 79.8 ± 36 | 1080 ± 330 | 2680 ± 510 | 282 ± 170 | 0.56 ± 0.067 | 0.66 ± 0.055
11 | Cc1nc(NC(=O)N2CCC[C@H]2C(N)=O)sc1-c1ccnc(C(C)(C)C(F)(F)F)c1 | 125 ± 33 | 391 ± 78 | 264 ± 87 | 982 ± 480 | 2090 ± 340 | 481 ± 400 | 0.495 ± 0.057 | 0.683 ± 0.089
12 | CCCCc1oc2ccccc2c1C(=O)c1cc(I)c(OCCN(CC)CC)c(I)c1 | 216 ± 65 | 422 ± 86 | – | – | 2240 ± 600 | 218 ± 220 | 0.504 ± 0.095 | 0.66 ± 0.063
13 | COc1cc2nc(N(C)CCCNC(=O)C3CCCO3)nc(N)c2cc1OC (stereo not given) | 152 ± 41 | 456 ± 63 | 95.2 ± 30 | 443 ± 190 | 2620 ± 610 | 1430 ± 1100 | 0.536 ± 0.055 | 0.593 ± 0.098
14 | CCN(CC)c1ccc(NC(=O)c2oc3ccccc3c2C)cc1 | 229 ± 180 | 404 ± 79 | 70.6 ± 30 | 976 ± 440 | 2530 ± 360 | 355 ± 490 | 0.54 ± 0.063 | 0.694 ± 0.087
15 | Oc1ccc(Nc2nc(-c3cccs3)cs2)cc1 | 141 ± 38 | 526 ± 300 | 79.9 ± 30 | 855 ± 350 | 2570 ± 490 | 322 ± 330 | 0.551 ± 0.068 | 0.657 ± 0.062
16 | COc1cc2ncnc(Nc3cccc(Cl)c3F)c2cc1OC(=O)N1CCN(C)C[C@H]1C | 178 ± 35 | 444 ± 68 | 79.6 ± 32 | 924 ± 310 | 2620 ± 550 | 306 ± 390 | 0.533 ± 0.058 | 0.643 ± 0.11
17 | COc1ccc(-n2nc(C(N)=O)c3c2C(=O)N(c2ccc(N4CCCCC4=O)cc2)CC3)cc1 | 158 ± 27 | 443 ± 78 | 79 ± 25 | 1020 ± 350 | 2590 ± 490 | 190 ± 220 | 0.554 ± 0.081 | 0.653 ± 0.07
18 | N#Cc1cccc(NC(=O)c2ccccn2)c1 | 182 ± 110 | 437 ± 72 | 87.6 ± 33 | 1100 ± 310 | 2720 ± 570 | 186 ± 170 | 0.575 ± 0.074 | 0.648 ± 0.066
19 | C[C@@H]1CN(C(=O)C[C@H](N)C(=O)N2Cc3ccccc3C2)CCN1C(c1ccc(F)cc1)c1ccc(F)cc1 | 248 ± 140 | 435 ± 98 | 78.6 ± 36 | 899 ± 350 | 1370 ± 490 | 161 ± 170 | 0.501 ± 0.075 | 0.711 ± 0.043
20 | O=C(Nc1cccc(C(F)(F)F)c1)Nc1cc(S(=O)(=O)NC2CC2)ccc1-c1ccsc1 | 202 ± 60 | 431 ± 96 | 73.1 ± 26 | 990 ± 380 | 2600 ± 450 | 260 ± 340 | 0.514 ± 0.12 | 0.675 ± 0.061
21 | Cc1nn(C)c2nc(NNC(=O)Nc3cc(Cl)nc(Cl)c3)cc(C(C)C)c12 | 158 ± 36 | 450 ± 100 | 80.9 ± 31 | 975 ± 250 | 2690 ± 410 | 452 ± 630 | 0.616 ± 0.12 | 0.645 ± 0.072
22 | CC(C)(c1ccc(O)cc1)c1ccc(O)cc1 | 189 ± 63 | 434 ± 91 | 79.5 ± 24 | 1010 ± 420 | 2630 ± 420 | 248 ± 230 | 0.533 ± 0.093 | 0.631 ± 0.044
23 | CC(=O)Nc1cccc(-n2c(=O)n(C3CC3)c(=O)c3c(Nc4ccc(I)cc4F)n(C)c(=O)c(C)c32)c1 | 64.2 ± 24 | 307 ± 39 | 140 ± 64 | 438 ± 320 | 2780 ± 270 | 1250 ± 720 | 0.591 ± 0.1 | 0.665 ± 0.069
24 | Cc1ccc(C2=NCCN2)cc1 | 189 ± 47 | 432 ± 100 | 74.5 ± 42 | 995 ± 500 | 2620 ± 620 | 682 ± 1000 | 0.537 ± 0.13 | 0.645 ± 0.073

Ordered by number of heavy atoms (ascending): part of the list above.
Row | SMILES | microglia count ([1]; LPS 0 ng/mL) | microglia count ([1]; LPS 100 ng/mL) | necrotic cell count ([2]; LPS 0 ng/mL) | necrotic cell count ([2]; LPS 100 ng/mL) | live neuron count ([3]; LPS 0 ng/mL) | live neuron count ([3]; LPS 100 ng/mL) | median microglial FormFactor ([4]; LPS 0 ng/mL) | median microglial FormFactor ([4]; LPS 100 ng/mL)
24 | Cc1ccc(C2=NCCN2)cc1 | 189 ± 47 | 432 ± 100 | 74.5 ± 42 | 995 ± 500 | 2620 ± 620 | 682 ± 1000 | 0.537 ± 0.13 | 0.645 ± 0.073
13 | COc1cc2nc(N(C)CCCNC(=O)C3CCCO3)nc(N)c2cc1OC (stereo not given) | 152 ± 41 | 456 ± 63 | 95.2 ± 30 | 443 ± 190 | 2620 ± 610 | 1430 ± 1100 | 0.536 ± 0.055 | 0.593 ± 0.098
20 | O=C(Nc1cccc(C(F)(F)F)c1)Nc1cc(S(=O)(=O)NC2CC2)ccc1-c1ccsc1 | 202 ± 60 | 431 ± 96 | 73.1 ± 26 | 990 ± 380 | 2600 ± 450 | 260 ± 340 | 0.514 ± 0.12 | 0.675 ± 0.061

From the supplement of paper PMC10973195
